PubChem BioAssay AID1508588 | Peter MacCallum Cancer Centre, 2020
Assay: 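Knock-downs boosting vemurafenib effects on melanoma cell growth or lactate release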 (primary screen). Cells: human WM266.4 melanoma cells (BRAF V600 mutant). Reagent: siRNA pool against human genes, 40 nM. Time to read-out: 96 h from transfection to read-out. Conditions: vemurafenib 300 nM (about IC25), added 48 h after transfection, for 48 h; comparison arm got DMSO vehicle only. Measurement: 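Cell gain (DAPI nuclei at end minus before drug, mean of two replicates) and medium lactate by absorbance per cell, both as ratio to non-targeting siRNA, also grouped into fold-change classes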. Scale: cell gain with vemurafenib: higher = more cell gain than with non-targeting siRNA; lactate per cell with vemurafenib: higher = more lactate made per cell. Rule for the call: 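Enhancement is called by pairing each knock-down's vehicle-arm and drug-arm fold-change classes for viability or glycolysis; which class combinations qualify is not given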. Meaning of the calls: active = enhances vemurafenib effect; inactive = no enhancement seen.
The deposit covers about 18,000 reagents; below is a part drawn at random. In the full data, 790 (4.4%) were called active. 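Calls rest on a combination of fold-change classes in drug and vehicle arms, not all shown here.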 Unmarked entries are inactive.

no.	gene	cell gain with vemurafenib	lactate per cell with vemurafenib
1	PYM1	0.21	1.35
2	ZNF669	0.01	1.52
3	ZNF230	0.66	0.8
4	UACA	0.9	0.64
5	DZANK1	0.38	1.5
6	CYB5D2	0.92	0.71
7	ADAM2	0.57	0.59
8	TAMALIN	0.84	0.5
9	RMC1	0.91	0.32
10	CENPS	0.51	1.02
11	KBTBD11	0.86	1.14
12	SEPTIN7	0.72	0.77
13	PSMG3	1.64	0.67
14	FITM1	-0.02	4.95
15	PIEZO1	0.65	0.85
16	COL12A1	0.36	1.38
17	RAB34	0.47 (active)	0.24
18	CHP1	0.44	0.33
19	NEUROD6	0	1.19
20	SIRT7	1.24	0.73
21	NEURL4	0.39	1.35
22	UBE2Q2	0.64	0.6
23	DBN1	0.94	1.88
24	H2AC21	1.27	0.76
25	ZNF425	0.05	2.48
26	PPDPFL	1.02	0.5
27	THG1L	0.64	0.73
28	POLK	0.51	1.12
29	SLC12A6	0.94	0.76
30	PYGO2	0.14	1.89
31	MCTS1	0.53	0.41
32	LMBR1L	0.67	0.7
33	SHBG	0.85	0.75
34	GRIA3	0.78	0.38
35	OTUB2	0.33	1.71
36	TMEM14B	0.08	1.82
37	SLIRP	0.5	1.77
38	FBXL5	0.63	0.88
39	GGT5	0.4	0.6
40	ARNT2	0.55	0.92
41	UPK1A	0.07	0.8
42	TPGS2	0.34	1.68
43	DOK2	0.11 (active)	0.55
44	DNAJC2	0.61	1.14
45	RDH8	0.92	1.57
46	ERP44	0.59	0.67
47	NEK8	0.01	2.02
48	HLA-DRB3	0.43	1.64
49	DNTTIP1	0.58	0.66
50	CDH2	0.52	1.12
51	TERB2	0.48	0.8
52	RAD51	-0.23	2.58
53	FSAF1	0.37 (active)	0.39
54	TRAPPC4	0.49	0.64
55	MAST1	0.69	1.68
56	CYP2S1	0.35	0.8
57	SLC4A1AP	0.82	1.05
58	PNN	0.19	1.09
59	CSNK1E	0.13	2.09
60	TUFT1	-0.04	0.69
61	BTAF1	0.27	0.86
62	SEC14L2	1.24	0.66
63	ACRBP	0.32	1.05
64	TSC1	1.03	0.61
65	CLDN5	0.68	0.86
66	DHRS11	0.03 (active)	1.13
67	PPARA	0.24	0.74
68	GPX5	0.33	2.08
69	TNFAIP8	0.7	0.5
70	TYRP1	1.14	0.55
71	AGAP2	0.49	0.96
72	MOXD1	0.91	0.46
73	MAPDA	1.02	0.81
74	CDK4	0.95	0.61
75	OR10H5	1.09	0.69
76	IMMP1L	0.84	0.64
77	EMC10	0.65	1.33
78	PIAS4	0.61	0.52
79	H4C6	0.22	3.14
80	SCFD2	0.8	0.68
81	AHRR	0.78	0.72
82	TMEM59	0.7	1.12
83	AIF1L	0.2 (active)	0.32
84	ZNF503	0.67	1.06
85	GSTA4	0.83	0.9
86	KRT8	0.5	1.23
87	INTS4	0.34	0.88
88	SNRNP35	0.49	0.98
89	FGD4	0.66	1.17
90	RRAGA	1.03	0.64
91	MYLIP	0.46	1
92	MXD1	0.26	0.92
93	EMC9	0.16 (active)	1.18
94	LNX1	0.7	0.6
95	EMILIN3	0.21	1.73
96	LIFR	0.52	0.64
97	KLRD1	0.43	1.44
98	ETS2	0.22	1.88
99	SLC35G2	0.53	0.82
100	EIF3F	0.29 (active)	0.32
101	DCTN4	0.79	1
102	SGTB	0.57	1.16
103	IFI35	0.87	1.68
104	SGTA	0.15 (active)	0.16
105	BUD13	0.7	1.29
106	RAB37	0.46	1.14
107	MARVELD2	0.62	0.85
